# Data from the supplement of paper PMC7666118.
# Amino acid sequences for entries named in this document (tags omitted). A change or cut given only in a name is not applied to a line headed by its entry.
# UniProt Q96QE2: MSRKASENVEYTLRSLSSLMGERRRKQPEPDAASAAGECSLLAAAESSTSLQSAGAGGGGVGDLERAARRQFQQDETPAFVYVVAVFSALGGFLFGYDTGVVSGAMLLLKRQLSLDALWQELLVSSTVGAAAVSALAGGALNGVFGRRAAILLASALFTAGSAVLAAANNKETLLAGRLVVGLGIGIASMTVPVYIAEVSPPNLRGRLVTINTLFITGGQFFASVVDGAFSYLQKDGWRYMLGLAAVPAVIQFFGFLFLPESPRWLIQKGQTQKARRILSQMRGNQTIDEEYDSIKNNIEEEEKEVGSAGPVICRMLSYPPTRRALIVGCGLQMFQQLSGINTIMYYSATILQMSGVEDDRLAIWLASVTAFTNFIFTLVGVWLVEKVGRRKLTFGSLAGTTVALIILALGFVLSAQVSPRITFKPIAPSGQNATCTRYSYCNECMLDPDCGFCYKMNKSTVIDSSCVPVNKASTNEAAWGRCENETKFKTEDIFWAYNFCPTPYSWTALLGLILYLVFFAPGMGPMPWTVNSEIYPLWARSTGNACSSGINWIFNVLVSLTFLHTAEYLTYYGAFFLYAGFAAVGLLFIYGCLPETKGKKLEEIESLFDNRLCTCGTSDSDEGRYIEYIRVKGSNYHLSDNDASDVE
# UniProt Q12874: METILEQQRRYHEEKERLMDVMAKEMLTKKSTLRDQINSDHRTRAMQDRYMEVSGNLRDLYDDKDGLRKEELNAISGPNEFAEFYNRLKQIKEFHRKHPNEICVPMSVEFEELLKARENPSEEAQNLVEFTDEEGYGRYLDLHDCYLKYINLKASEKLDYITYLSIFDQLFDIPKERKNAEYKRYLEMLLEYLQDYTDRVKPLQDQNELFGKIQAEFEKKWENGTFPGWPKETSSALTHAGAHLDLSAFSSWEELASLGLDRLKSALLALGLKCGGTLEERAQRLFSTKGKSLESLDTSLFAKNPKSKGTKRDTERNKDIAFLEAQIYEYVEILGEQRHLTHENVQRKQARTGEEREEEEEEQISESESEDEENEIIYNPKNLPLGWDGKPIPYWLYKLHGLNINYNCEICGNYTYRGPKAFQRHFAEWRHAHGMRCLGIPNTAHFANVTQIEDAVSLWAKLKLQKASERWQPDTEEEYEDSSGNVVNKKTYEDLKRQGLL
# UniProt Q9BYW2: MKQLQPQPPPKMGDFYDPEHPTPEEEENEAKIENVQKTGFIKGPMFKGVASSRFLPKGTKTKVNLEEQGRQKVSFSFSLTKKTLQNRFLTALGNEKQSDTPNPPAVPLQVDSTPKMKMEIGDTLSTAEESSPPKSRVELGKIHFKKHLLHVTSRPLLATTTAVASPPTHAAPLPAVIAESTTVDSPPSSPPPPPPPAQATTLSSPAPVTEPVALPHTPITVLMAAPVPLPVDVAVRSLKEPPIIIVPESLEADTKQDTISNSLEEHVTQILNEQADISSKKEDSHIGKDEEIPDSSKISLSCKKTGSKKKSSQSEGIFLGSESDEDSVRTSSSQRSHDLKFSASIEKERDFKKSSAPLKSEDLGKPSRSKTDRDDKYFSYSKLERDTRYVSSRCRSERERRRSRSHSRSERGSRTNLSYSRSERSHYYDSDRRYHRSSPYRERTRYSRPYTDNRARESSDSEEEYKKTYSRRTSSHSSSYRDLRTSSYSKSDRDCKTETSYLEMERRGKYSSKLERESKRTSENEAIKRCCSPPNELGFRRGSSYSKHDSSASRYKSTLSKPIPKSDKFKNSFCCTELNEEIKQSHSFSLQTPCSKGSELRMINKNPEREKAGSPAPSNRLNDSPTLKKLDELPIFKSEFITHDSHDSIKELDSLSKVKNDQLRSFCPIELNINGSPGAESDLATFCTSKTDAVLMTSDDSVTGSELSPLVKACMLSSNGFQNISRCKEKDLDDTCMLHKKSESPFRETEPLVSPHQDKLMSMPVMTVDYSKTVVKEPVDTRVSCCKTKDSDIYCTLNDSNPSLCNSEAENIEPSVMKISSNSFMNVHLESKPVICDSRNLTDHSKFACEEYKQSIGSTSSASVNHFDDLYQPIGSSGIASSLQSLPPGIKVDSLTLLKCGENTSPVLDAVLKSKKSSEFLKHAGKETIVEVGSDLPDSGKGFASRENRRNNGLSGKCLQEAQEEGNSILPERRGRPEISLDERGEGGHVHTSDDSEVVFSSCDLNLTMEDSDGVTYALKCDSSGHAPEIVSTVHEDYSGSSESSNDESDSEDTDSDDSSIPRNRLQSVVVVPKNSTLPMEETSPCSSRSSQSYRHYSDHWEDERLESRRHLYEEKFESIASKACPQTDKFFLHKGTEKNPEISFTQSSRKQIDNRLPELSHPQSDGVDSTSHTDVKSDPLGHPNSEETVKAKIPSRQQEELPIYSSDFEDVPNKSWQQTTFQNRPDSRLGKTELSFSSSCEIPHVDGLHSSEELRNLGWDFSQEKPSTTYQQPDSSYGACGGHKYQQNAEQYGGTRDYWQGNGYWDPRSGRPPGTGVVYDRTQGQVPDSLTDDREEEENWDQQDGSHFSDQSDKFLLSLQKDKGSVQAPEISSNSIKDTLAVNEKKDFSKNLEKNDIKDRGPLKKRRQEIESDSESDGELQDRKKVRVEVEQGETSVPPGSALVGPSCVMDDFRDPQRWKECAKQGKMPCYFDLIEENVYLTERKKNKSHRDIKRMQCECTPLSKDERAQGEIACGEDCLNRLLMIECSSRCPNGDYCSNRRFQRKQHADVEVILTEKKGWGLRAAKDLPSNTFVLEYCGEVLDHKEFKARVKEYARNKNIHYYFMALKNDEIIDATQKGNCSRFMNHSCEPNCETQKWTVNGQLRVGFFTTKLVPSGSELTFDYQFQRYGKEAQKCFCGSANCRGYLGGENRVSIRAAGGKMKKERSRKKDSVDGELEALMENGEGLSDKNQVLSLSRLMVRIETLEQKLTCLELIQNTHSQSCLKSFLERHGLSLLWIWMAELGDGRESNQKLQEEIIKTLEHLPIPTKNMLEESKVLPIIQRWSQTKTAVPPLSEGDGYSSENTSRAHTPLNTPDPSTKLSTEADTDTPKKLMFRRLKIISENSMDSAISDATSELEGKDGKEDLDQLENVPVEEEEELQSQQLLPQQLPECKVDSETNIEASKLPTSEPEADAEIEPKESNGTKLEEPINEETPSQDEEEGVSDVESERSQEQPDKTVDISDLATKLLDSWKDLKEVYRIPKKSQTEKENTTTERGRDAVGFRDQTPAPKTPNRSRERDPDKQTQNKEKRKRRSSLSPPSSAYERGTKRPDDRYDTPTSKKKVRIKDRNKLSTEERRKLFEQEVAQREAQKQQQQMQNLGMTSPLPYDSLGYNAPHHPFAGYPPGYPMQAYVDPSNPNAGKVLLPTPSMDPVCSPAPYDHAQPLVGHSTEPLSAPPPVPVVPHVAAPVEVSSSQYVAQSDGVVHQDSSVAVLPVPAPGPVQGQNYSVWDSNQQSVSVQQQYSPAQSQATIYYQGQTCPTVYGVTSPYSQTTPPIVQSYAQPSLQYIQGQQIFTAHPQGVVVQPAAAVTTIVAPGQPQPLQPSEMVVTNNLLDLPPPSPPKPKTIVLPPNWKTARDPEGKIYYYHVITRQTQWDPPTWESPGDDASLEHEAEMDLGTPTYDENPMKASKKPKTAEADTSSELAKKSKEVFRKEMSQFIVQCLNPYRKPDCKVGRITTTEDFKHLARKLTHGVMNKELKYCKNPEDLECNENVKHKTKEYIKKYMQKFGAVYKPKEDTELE
# UniProt Q15428: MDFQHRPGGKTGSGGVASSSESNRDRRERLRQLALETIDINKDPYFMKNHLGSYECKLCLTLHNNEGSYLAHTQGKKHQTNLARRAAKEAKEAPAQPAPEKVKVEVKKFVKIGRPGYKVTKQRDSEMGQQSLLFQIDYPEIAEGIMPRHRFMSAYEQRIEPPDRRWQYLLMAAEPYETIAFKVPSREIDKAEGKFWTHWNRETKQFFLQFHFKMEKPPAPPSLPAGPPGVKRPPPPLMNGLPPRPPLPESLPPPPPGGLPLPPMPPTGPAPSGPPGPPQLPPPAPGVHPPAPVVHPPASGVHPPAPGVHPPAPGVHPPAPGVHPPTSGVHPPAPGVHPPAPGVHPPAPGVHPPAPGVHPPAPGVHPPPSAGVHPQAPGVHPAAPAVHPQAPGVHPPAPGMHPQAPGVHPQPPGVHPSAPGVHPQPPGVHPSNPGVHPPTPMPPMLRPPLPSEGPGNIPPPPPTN
# UniProt Q9Y3L3: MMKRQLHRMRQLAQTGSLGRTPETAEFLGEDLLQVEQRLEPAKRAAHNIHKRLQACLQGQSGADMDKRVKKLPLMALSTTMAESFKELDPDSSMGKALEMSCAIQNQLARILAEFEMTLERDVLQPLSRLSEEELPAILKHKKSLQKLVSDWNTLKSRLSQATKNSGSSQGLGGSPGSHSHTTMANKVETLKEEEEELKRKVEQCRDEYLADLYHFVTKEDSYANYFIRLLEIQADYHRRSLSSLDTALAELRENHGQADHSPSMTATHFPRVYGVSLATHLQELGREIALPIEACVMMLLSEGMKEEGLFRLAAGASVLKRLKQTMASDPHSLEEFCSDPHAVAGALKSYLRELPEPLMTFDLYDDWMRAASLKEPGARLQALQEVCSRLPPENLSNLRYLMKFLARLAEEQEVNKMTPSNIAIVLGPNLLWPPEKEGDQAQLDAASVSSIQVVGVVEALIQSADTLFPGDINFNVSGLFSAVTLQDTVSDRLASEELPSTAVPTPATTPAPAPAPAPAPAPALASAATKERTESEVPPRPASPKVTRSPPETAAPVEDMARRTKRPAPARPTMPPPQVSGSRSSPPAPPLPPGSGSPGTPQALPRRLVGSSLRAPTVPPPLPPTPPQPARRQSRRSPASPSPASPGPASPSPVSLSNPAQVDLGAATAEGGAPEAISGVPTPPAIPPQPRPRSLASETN
# UniProt Q9Y5X1: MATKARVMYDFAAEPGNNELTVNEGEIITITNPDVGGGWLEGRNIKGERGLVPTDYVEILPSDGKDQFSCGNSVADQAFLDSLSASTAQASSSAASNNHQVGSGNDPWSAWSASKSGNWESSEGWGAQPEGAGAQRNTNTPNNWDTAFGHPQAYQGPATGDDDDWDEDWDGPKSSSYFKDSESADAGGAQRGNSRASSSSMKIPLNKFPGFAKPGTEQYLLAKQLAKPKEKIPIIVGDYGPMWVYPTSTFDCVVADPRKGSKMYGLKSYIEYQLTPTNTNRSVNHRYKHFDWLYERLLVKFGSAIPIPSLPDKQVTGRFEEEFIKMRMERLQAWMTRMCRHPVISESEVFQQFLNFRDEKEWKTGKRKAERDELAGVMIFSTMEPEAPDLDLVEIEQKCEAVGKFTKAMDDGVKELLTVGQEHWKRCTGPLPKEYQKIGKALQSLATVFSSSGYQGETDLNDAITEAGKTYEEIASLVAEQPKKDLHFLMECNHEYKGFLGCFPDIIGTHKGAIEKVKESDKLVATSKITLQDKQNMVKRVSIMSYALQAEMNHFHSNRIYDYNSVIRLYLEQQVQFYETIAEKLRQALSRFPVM
# UniProt Q9Y5X2: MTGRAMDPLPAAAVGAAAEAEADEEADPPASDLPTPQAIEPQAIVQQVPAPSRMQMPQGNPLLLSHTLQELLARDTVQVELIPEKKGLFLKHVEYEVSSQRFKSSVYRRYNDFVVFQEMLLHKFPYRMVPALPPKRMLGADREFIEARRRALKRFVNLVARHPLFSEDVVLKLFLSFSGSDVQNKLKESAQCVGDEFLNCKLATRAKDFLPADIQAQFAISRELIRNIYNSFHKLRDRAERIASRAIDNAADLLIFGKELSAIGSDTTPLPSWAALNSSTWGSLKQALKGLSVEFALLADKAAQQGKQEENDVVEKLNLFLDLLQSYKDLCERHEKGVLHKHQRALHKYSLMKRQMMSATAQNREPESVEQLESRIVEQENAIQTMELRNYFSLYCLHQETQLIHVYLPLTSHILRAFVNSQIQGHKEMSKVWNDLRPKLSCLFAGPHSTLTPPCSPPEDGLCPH
# UniProt Q6GMV2: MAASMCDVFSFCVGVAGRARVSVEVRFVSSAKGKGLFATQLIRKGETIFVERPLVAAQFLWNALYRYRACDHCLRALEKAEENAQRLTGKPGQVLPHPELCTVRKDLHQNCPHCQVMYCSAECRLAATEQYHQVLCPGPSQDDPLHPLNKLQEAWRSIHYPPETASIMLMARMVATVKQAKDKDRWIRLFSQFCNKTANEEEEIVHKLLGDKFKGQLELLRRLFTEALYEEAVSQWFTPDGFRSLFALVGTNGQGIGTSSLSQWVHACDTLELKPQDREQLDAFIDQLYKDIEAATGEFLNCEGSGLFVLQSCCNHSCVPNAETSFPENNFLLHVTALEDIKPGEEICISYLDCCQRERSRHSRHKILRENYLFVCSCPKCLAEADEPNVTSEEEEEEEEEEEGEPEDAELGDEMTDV
# UniProt O95562: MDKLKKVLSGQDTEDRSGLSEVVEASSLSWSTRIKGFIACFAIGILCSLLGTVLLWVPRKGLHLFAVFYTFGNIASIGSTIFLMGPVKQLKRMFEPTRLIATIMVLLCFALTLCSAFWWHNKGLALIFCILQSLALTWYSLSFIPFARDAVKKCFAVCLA
# The list shows a part of the results.
# Compound: COc1ccc(Cn2ccc3cc(C)c(C(=O)NO)cc32)cc1
# Assay: dose-dependent thermal stabilisation call (2D-TPP, DLPTP, 10% FDR) (binary (1 = stabilised)); higher = stabilised by the compound
# Settings: system: HL-60 intact cells; concentration range 0.04-10 µM
# Protocol: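 2D thermal proteome profiling in intact HL-60 cells treated with BRD-3811 (0, 0.04, 0.29, 2, 10 uM) for 90 min at 37 C, then heated 3 min at one of 12 temperatures (42-63.9 C). Soluble protein was quantified by TMT10 MS. The value is the DLPTP call of the paper: dose-dependent thermal stabilisation over all temperatures at 10% FDR (F-test of a dose-response against a flat model); one experiment, one call per tested protein.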
row,Target,dose-dependent thermal stabilisation call
1,SNRPD3 (UniProt P62318),inactive: 0
2,SNRPC (UniProt P09234),inactive: 0
3,SNX3 (UniProt O60493),inactive: 0
4,SLC25A19 (UniProt Q9HC21),inactive: 0
5,SLC2A13 (UniProt Q96QE2),inactive: 0
6,SF3A3 (UniProt Q12874),inactive: 0
7,SLC26A6 (UniProt Q9BXS9),inactive: 0
8,SIGMAR1 (UniProt Q99720),inactive: 0
9,SIP1,inactive: 0
10,SKP1 (UniProt P63208),inactive: 0
11,SLC12A9 (UniProt Q9BXP2),inactive: 0
12,SETD2 (UniProt Q9BYW2),inactive: 0
13,SF3A2 (UniProt Q15428),inactive: 0
14,SMARCE1 (UniProt Q969G3),inactive: 0
15,SLC43A1 (UniProt O75387),inactive: 0
16,SFRS2IP (UniProt Q99590),inactive: 0
17,SH3BGRL (UniProt O75368),inactive: 0
18,SMCHD1 (UniProt A6NHR9),inactive: 0
19,SH3BP1 (UniProt Q9Y3L3),inactive: 0
20,SNX6 (UniProt Q9UNH7),inactive: 0

# 3 records drawn at random from those above, as already listed:
row,Target,dose-dependent thermal stabilisation call
5,SLC2A13 (UniProt Q96QE2),inactive: 0
1,SNRPD3 (UniProt P62318),inactive: 0
3,SNX3 (UniProt O60493),inactive: 0

# The list goes on.

row,Target,dose-dependent thermal stabilisation call
1,SNX4 (UniProt O95219),inactive: 0
2,SNX9 (UniProt Q9Y5X1),inactive: 0
3,SHMT1 (UniProt P34896),inactive: 0
4,SLC39A3 (UniProt Q9BRY0),inactive: 0
5,SLC30A6 (UniProt Q6NXT4),inactive: 0
6,SNX8 (UniProt Q9Y5X2),inactive: 0
7,SLC29A3 (UniProt Q9BZD2),inactive: 0
8,SMPD1 (UniProt P17405),inactive: 0
9,SNRPA1 (UniProt P09661),inactive: 0
10,SMTN (UniProt P53814),inactive: 0
11,SMYD5 (UniProt Q6GMV2),inactive: 0
12,SLC25A16 (UniProt P16260),inactive: 0
13,SLC9A3R1 (UniProt O14745),inactive: 0
14,SLC2A3 (UniProt P11169),inactive: 0
15,SLC1A4 (UniProt P43007),inactive: 0
16,SLC29A2 (UniProt Q14542),inactive: 0
17,SFT2D2 (UniProt O95562),inactive: 0
18,SH3BGRL2 (UniProt Q9UJC5),inactive: 0
19,SLC11A2 (UniProt P49281),inactive: 0
20,SLK (UniProt Q9H2G2),inactive: 0
